Values of other authors in US20070141182A1, “Combination of multiple nonteroidal antiinflammatory drugs and muscle relaxants for local treatment of musculoskeletal pain” (priority 2005, published 2007).

Conditions: human skin, Franz diffusion cell

CN1[C@@H]2C[C@@H](OC(=O)[C@H](CO)c3ccccc3)C[C@H]1[C@@H]1O[C@@H]12 [scopolamine, Scopolamine]
transport rate from lecithin gel relative to aqueous solution at same conc.: about one order of magnitude higher
